Source: PubChem BioAssay AID248 (DTP/NCI, 2004)
The list is a part of this screen's results and no random one: it is rich in T/C values a quarter to a half above the control, in often repeated tests (any T/C) and in doses without a T/C. Further doses and runs are listed elsewhere. T/C: endpoint of the treated group in % of that of the vehicle group. Some entries give survivors of the animals treated and no T/C: the source files T/C as zero there, which appears to mark a toxic dose or a test without result, not a measured value. Some survivor counts are full or nearly so, which does not show that the dose was tolerated: survival well below the control is almost never listed, so the zero probably covers shortened survival too. Counts of survivors are from the toxicity check (mostly the fifth day) where no day follows; animals may have died later. Schedules are NCI's codes, taken here to give the interval after Q, in days (D) or hours (H), and the number of doses after X. Some entries were tested several times; their values stand side by side, smallest first. Some schedule codes hold Z or #, which are not explained here. Where survival is the endpoint, this PubChem deposit counts one and a half times the control or more as active, and values a quarter to a half above the control carry no call in these data; other NCI protocols may use other cut-offs. Some T/C values are followed by the survivors on the day toxicity was checked, most often the fifth; where none is given, no animal had died by that day.

Test system: L1210 leukemia ip in BDF1 mice, survival T/C
Test: NCI In Vivo Anticancer Drug Screen. Data for tumor model L1210 Leukemia (intraperitoneal) in B6D2F1 (BDF1) mice
Details: T/C endpoint: mean survival time, higher T/C = longer survival
[1] = dose: 50.0 mg/kg/injection, schedule: Q01DX009 (ip), vehicle: Klucel (hydroxypropylcellulose) (HPC)
[2] = dose: 200.0 mg/kg/injection, schedule: Q01DX009 (ip), vehicle: Klucel (hydroxypropylcellulose) (HPC)
[3] = dose: 400.0 mg/kg/injection, schedule: Q01DX009 (ip), vehicle: Klucel (hydroxypropylcellulose) (HPC)
[4] = dose: 200.0 mg/kg/injection, schedule: Q04DX002 (ip), vehicle: saline with Tween-80
[5] = dose: 400.0 mg/kg/injection, schedule: Q04DX002 (ip), vehicle: saline with Tween-80
[6] = dose: 200.0 mg/kg/injection, schedule: Q01DX001 (ip), vehicle: carboxymethylcellulose (CMC)
[7] = dose: 400.0 mg/kg/injection, schedule: Q01DX001 (ip), vehicle: carboxymethylcellulose (CMC)
[8] = dose: 75.0 mg/kg/injection, schedule: Q01DX001 (ip), vehicle: carboxymethylcellulose (CMC)
[9] = dose: 300.0 mg/kg/injection, schedule: Q01DX001 (ip), vehicle: carboxymethylcellulose (CMC)
[10] = dose: 200.0 mg/kg/injection, schedule: Q04DX003 (ip), vehicle: saline
[11] = dose: 400.0 mg/kg/injection, schedule: Q04DX003 (ip), vehicle: saline
[12] = dose: 200.0 mg/kg/injection, schedule: Q01DX009 (ip), vehicle: saline
[13] = dose: 400.0 mg/kg/injection, schedule: Q01DX009 (ip), vehicle: saline
[14] = dose: 150.0 mg/kg/injection, schedule: Q01DX001 (ip), vehicle: carboxymethylcellulose (CMC)
[15] = dose: 100.0 mg/kg/injection, schedule: Q04DX002 (ip), vehicle: saline with Tween-80

With `CCC[CH2][Sn]([CH2]CCC)([O]S(C)(=O)=O)[O]S(C)(=O)=O` the survivor count (dose: 6.25 mg/kg/injection, schedule: Q01DX009 (ip), vehicle: Klucel (hydroxypropylcellulose) (HPC)) was 0 of 3, the survivor count (dose: 12.5 mg/kg/injection, schedule: Q01DX009 (ip), vehicle: Klucel (hydroxypropylcellulose) (HPC)) was 0 of 3 and the survivor count (dose: 25.0 mg/kg/injection, schedule: Q01DX009 (ip), vehicle: Klucel (hydroxypropylcellulose) (HPC)) was 0 of 3. For the same molecule, the survivor count [1] was 0 of 3, the survivor count (dose: 100.0 mg/kg/injection, schedule: Q01DX009 (ip), vehicle: Klucel (hydroxypropylcellulose) (HPC)) was 0 of 3 and 0 of 6 and the survivor count [2] was 0 of 6. For the same molecule, the survivor count [3] was 0 of 6.
For `CCCCCCCCCCCCCCCC(=O)NCC[N+](CC)(CC)Cc1ccc(C[N+](CC)(CC)CCNC(=O)CCCCCCCCCCCCCCC)cc1`, the survivor count (dose: 150.0 mg/kg/injection, schedule: Q01DX001 (ip), vehicle: saline) was 2 of 6 and the survivor count (dose: 300.0 mg/kg/injection, schedule: Q01DX001 (ip), vehicle: saline) was 0 of 6.
`OCCCCCCCCCCCC[n+]1ccccc1` was tested, and the survivor count (dose: 175.0 mg/kg/injection, schedule: Q01DX001 (ip), vehicle: saline) was 0 of 6 and the survivor count (dose: 350.0 mg/kg/injection, schedule: Q01DX001 (ip), vehicle: saline) was 0 of 6.
`NN=O` was tested, and the survivor count (dose: 400.0 mg/kg/injection, schedule: Q01DX001 (ip), vehicle: saline) was 1 of 3.
In the case of `O=C(N/N=C/c1cc(Cl)ccc1[N+](=O)[O-])c1cccc2ccccc12`, the survivor count (dose: 100.0 mg/kg/injection, schedule: Q01DX001 (ip), vehicle: saline) is reported as 4 of 4.
With `CC(=O)OC(C)(C)/C=C/C(=O)C(C)(O)C1C(O)CC2(C)C3CC=C4C(C=C(OC5OC(CO)C(O)C(O)C5O)C(=O)C4(C)C)C3(C)C(=O)CC12C` (centres undefined) the survivor count [4] was 2 of 3 and the survivor count [5] was 1 of 3.
With `Cc1ncc(CC#N)c2c1OC(C)(C)OC2` the survivor count (dose: 100.0 mg/kg/injection, schedule: Q01DX001 (ip), vehicle: carboxymethylcellulose (CMC)) was 0 of 4, the survivor count [6] was 0 of 4 and the survivor count [7] was 0 of 4.
`O=NN(CCCl)C(=O)Nc1cccc(Cl)c1` was tested, and the T/C (dose: 9.12 mg/kg/injection, schedule: Q01DX001 (ip), vehicle: carboxymethylcellulose (CMC)) was 132 % of control, the T/C (dose: 18.25 mg/kg/injection, schedule: Q01DX001 (ip), vehicle: carboxymethylcellulose (CMC)) was 140 % of control and the T/C (dose: 37.5 mg/kg/injection, schedule: Q01DX001 (ip), vehicle: carboxymethylcellulose (CMC)) was 138 % of control. The T/C (dose: 50.0 mg/kg/injection, schedule: Q01DX001 (ip), vehicle: carboxymethylcellulose (CMC)) was 144 % of control, the T/C [8] was 148 % of control and the survivor count [6] was 5 of 6. For the same molecule, the survivor count [9] was 5 of 6, the survivor count [7] was 2 of 6 and the survivor count (dose: 500.0 mg/kg/injection, schedule: Q01DX001 (ip), vehicle: carboxymethylcellulose (CMC)) was 0 of 6. The survivor count (dose: 600.0 mg/kg/injection, schedule: Q01DX001 (ip), vehicle: carboxymethylcellulose (CMC)) was 0 of 6, the survivor count (dose: 800.0 mg/kg/injection, schedule: Q01DX001 (ip), vehicle: carboxymethylcellulose (CMC)) was 0 of 6 and the survivor count (dose: 1000.0 mg/kg/injection, schedule: Q01DX001 (ip), vehicle: carboxymethylcellulose (CMC)) was 0 of 6.
For `O=C(O)C1C2CCC(O2)C1C(=O)O` (centres undefined), the survivor count [7] was 1 of 4.
In the case of `CCOC(=O)C(C(=O)OCC)c1cc(Cl)nnc1Cl`, the T/C (dose: 50.0 mg/kg/injection, schedule: Q04DX002 (ip), vehicle: saline) is reported as 134 % of control.
With `CSC(C#N)S(C)(=O)=O` (centres undefined) the survivor count (dose: 200.0 mg/kg/injection, schedule: Q01DX001 (ip), vehicle: Klucel (hydroxypropylcellulose) (HPC)) was 0 of 3 and the survivor count (dose: 400.0 mg/kg/injection, schedule: Q01DX001 (ip), vehicle: Klucel (hydroxypropylcellulose) (HPC)) was 0 of 3.
With `Nc1ccn(C2OC(COC(=O)C34CC5CC(CC(C5)C3)C4)C(O)C2O)c(=O)n1` (centres undefined) the T/C (dose: 400.0 mg/kg/injection, schedule: Q01DX001 (ip), vehicle: other) was 134 [7 of 8 alive] and 138 % of control [7 of 8 alive].
For `O=C(CBr)c1cccnc1`, the survivor count (dose: 25.0 mg/kg/injection, schedule: Q01DX009 (ip), vehicle: saline) was 2 of 6, the survivor count (dose: 100.0 mg/kg/injection, schedule: Q04DX003 (ip), vehicle: saline) was 0 of 6 and the survivor count [10] was 0 of 6. For the same molecule, the survivor count [11] was 0 of 6.
`CC(=O)Nc1cccc(Br)c1` was tested, and the survivor count [1] was 3 of 3.
In the case of `C=CCN(CC=C)CC=C`, the survivor count (dose: 100.0 mg/kg/injection, schedule: Q01DX009 (ip), vehicle: saline) is reported as 6 of 6, the survivor count [12] is reported as 2 of 6 and the survivor count [13] is reported as 0 of 6.
In the case of `CC(C)(C)c1ccc(CBr)cc1`, the survivor count (dose: 100.0 mg/kg/injection, schedule: Q04DX002 (ip), vehicle: Klucel (hydroxypropylcellulose) (HPC)) is reported as 0 of 3, the survivor count (dose: 200.0 mg/kg/injection, schedule: Q04DX002 (ip), vehicle: Klucel (hydroxypropylcellulose) (HPC)) is reported as 1 of 3 and the survivor count (dose: 400.0 mg/kg/injection, schedule: Q04DX002 (ip), vehicle: Klucel (hydroxypropylcellulose) (HPC)) is reported as 2 of 3.
With `c1ccc(NNCC[P+](c2ccccc2)(c2ccccc2)c2ccccc2)cc1` the survivor count (dose: 30.0 mg/kg/injection, schedule: Q01DX001 (ip), vehicle: carboxymethylcellulose (CMC)) was 2 of 6, the survivor count (dose: 60.0 mg/kg/injection, schedule: Q01DX001 (ip), vehicle: carboxymethylcellulose (CMC)) was 0 of 6 and the survivor count [8] was 0 of 6. The survivor count [14] was 0 of 6 and the survivor count [9] was 0 of 6.
`CC(=O)Nc1ccc(NC(=O)c2cccc3ccccc23)cc1` was tested, and the survivor count [2] was 5 of 6 and 6 of 6.
For `CCCCNC(=NC)c1ccc(NC(=O)c2ccc(C(=O)Nc3ccc(C(=NC)NCCCC)cc3)cc2)cc1`, the survivor count (dose: 10.0 mg/kg/injection, schedule: Q01DX Z (ip), vehicle: saline) was 2 of 6 and the survivor count (dose: 15.0 mg/kg/injection, schedule: Q01DX Z (ip), vehicle: saline) was 0 of 6.
For `C1=CC=CN(c2ccccc2)C=C1`, the survivor count [3] was 3 of 6.
In the case of `CCNC(Cc1ccccc1)C1CCCO1` (centres undefined), the survivor count [12] is reported as 0 of 6, the survivor count [10] is reported as 2 of 4 and the survivor count [13] is reported as 0 of 6. The survivor count [11] was 0 of 4.
In the case of `Nc1c(Cl)nc(Cl)nc1C(F)(F)F`, the survivor count (dose: 66.0 mg/kg/injection, schedule: Q01DX Z (ip), vehicle: methylcellulose (MC)) is reported as 5 of 6 and the survivor count (dose: 100.0 mg/kg/injection, schedule: Q01DX Z (ip), vehicle: methylcellulose (MC)) is reported as 3 of 6.
For `C#CC[N+](CCO)(CCO)CCCCCCCCCCCCCCCCCC`, the survivor count [15] was 1 of 3, the survivor count [4] was 0 of 3 and the survivor count [5] was 0 of 3.
For `CCCCNC(=O)Nc1cc(C)c(C)cc1C`, the survivor count (dose: 100.0 mg/kg/injection, schedule: Q01DX009 (ip), vehicle: gum acacia) was 6 of 6 and the survivor count (dose: 400.0 mg/kg/injection, schedule: Q01DX009 (ip), vehicle: gum acacia) was 4 of 6.
For `CC(=O)Oc1ccc(Cl)cc1`, the survivor count (dose: 400.0 mg/kg/injection, schedule: Q01DX009 (ip), vehicle: saline with Tween-80) was 3 of 6.
In the case of `COc1cc(-c2ccc(-[n+]3nc(-c4ccc([N+](=O)[O-])cc4)nn3-c3ccc([N+](=O)[O-])cc3)c(OC)c2)ccc1-[n+]1nc(-c2ccc([N+](=O)[O-])cc2)nn1-c1ccc([N+](=O)[O-])cc1`, the survivor count [8] is reported as 1 of 6, the survivor count [14] is reported as 1 of 6 and the survivor count [9] is reported as 0 of 6.
For `C[CH2][Sn]([CH2]C)([CH2]C)[S]Cc1ccccc1`, the survivor count [15] was 0 of 3, the survivor count [4] was 0 of 3 and the survivor count [5] was 0 of 3.
For `Cc1ccc(Cl)c(NC(=O)Nc2ccccc2Cl)c1`, the survivor count [2] was 6 of 6.
